Test results as given in patent US8168625B2, “Pharmaceutical composition based on agonist of benzodiazepine” (Sigma Pharma Ltda., priority 2003, dated 2012).

Assay: Bioavailability after single dose: sublingual tablets (Examples I-III) versus conventional oral tablets, crossed randomized studies
Conditions: for AUC(0-inf) / AUC(0-t) / Cmax / Tmax / concentration / concentration at 0 min / concentration at 20 min / concentration at 40 min / concentration at 1 h / concentration at 1.5 h / concentration at 2 h / concentration at 2.5 h / concentration at 4 h / concentration at 6 h / concentration at 8 h / concentration at 10 h / concentration at 12 h / concentration at 24 h / concentration at 3.5 h: male, human, plasma; for concentration at 3.5 h: 10 mg
Procedure: Three studies were carried out, each of them with eight healthy volunteers of the male sex, recruited after information on the nature and characteristics of the principles included in the scope of the study. Each study, composed of two periods of treatment, was carried out according to a crossed and randomized scheme. All individuals received the previously established dose of the active ingredient in the form of conventional oral tablets and sublingual tablets, with a period of detoxication of, at least, seven days between the first and the following administration, according to a previously established randomized list. The sublingual tablets were placed under the tongue until complete dissolution, in correspondence with the venous plexus, while the conventional oral tablets were swallowed unbroken with 150 ml of mineral water. Within the intervals of 0-20-40 minutes, 1-1,5-2-2,5-3-3,5-4-6-8-10-[…] and 24 hours after the treatment, 5 ml of blood were collected.

In the case of `CN1C(=O)CN=C(c2ccccc2)c2cc(Cl)ccc21` [DIAZEPAM, diazepam], the AUC(0-inf) is reported as 4970 ± 743 ng·h/mL, the AUC(0-t) is reported as 2730 ± 144 ng·h/mL and the Cmax is reported as 322 ± 13.3 ng/mL. For the same compound, the Tmax was 45 ± 9 min, the concentration (other: sublingual) was 157 ± 12.1 ng/mL and the concentration at 0 min (other: sublingual) was 0 ng/mL. It also gave a concentration at 20 min (other: sublingual) of 194 ± 31.9 ng/mL, a concentration at 40 min (other: sublingual) of 308 ± 36.9 ng/mL and a concentration at 1 h (other: sublingual) of 274 ± 31.4 ng/mL. The concentration at 1.5 h (other: sublingual) was 210 ± 21.4 ng/mL, the concentration at 2 h (other: sublingual) was 178 ± 13.5 ng/mL and the concentration at 2.5 h (other: sublingual) was 162 ± 14.7 ng/mL. It also gave a concentration at 4 h (other: sublingual) of 132 ± 11.7 ng/mL, a concentration at 6 h (other: sublingual) of 123 ± 9 ng/mL and a concentration at 8 h (other: sublingual) of 111 ± 5.54 ng/mL. It also gave a concentration at 10 h (other: sublingual) of 103 ± 5.3 ng/mL, a concentration at 12 h (other: sublingual) of 94.8 ± 8.9 ng/mL and a concentration at 24 h (other: sublingual) of 83.3 ± 11.1 ng/mL. For the same compound, the Tmax (other: sublingual versus oral) was roughly 30 min, the concentration at 3.5 h (other: sublingual) was 146 ± 10.6 ng/mL and the AUC(0-inf) (po) was 5390 ± 1130 ng·h/mL. For the same compound, the AUC(0-t) (po) was 2910 ± 287 ng·h/mL, the Cmax (po) was 308 ± 30.2 ng/mL and the Tmax (po) was 75 ± 16.2 min. For the same compound, the concentration (po) was 183 ± 19.4 ng/mL, the concentration at 0 min (po) was 0 ng/mL and the concentration at 20 min (po) was 51.9 ± 7.6 ng/mL. The concentration at 40 min (po) was 106 ± 13.3 ng/mL, the concentration at 1 h (po) was 276 ± 45.6 ng/mL and the concentration at 1.5 h (po) was 280 ± 36 ng/mL. It also gave a concentration at 2 h (po) of 235 ± 26.1 ng/mL, a concentration at 2.5 h (po) of 203 ± 21.7 ng/mL and a concentration at 4 h (po) of 155 ± 17 ng/mL. It also gave a concentration at 6 h (po) of 134 ± 14.4 ng/mL, a concentration at 8 h (po) of 119 ± 13.1 ng/mL and a concentration at 10 h (po) of 110 ± 13.8 ng/mL. For the same compound, the concentration at 12 h (po) was 103 ± 15.2 ng/mL, the concentration at 24 h (po) was 94.4 ± 14 ng/mL and the concentration at 3.5 h (po) was 166 ± 17.9 ng/mL. For the same compound, the “AUC and Cmax, sublingual versus oral” value (sublingual versus conventional oral tablets) was “comparable”.
